The target of the experiment is T1, WIPI1^HA (HA-tagged WIPI1) (human) (UniProt Q5MNZ9).
T1 sequence: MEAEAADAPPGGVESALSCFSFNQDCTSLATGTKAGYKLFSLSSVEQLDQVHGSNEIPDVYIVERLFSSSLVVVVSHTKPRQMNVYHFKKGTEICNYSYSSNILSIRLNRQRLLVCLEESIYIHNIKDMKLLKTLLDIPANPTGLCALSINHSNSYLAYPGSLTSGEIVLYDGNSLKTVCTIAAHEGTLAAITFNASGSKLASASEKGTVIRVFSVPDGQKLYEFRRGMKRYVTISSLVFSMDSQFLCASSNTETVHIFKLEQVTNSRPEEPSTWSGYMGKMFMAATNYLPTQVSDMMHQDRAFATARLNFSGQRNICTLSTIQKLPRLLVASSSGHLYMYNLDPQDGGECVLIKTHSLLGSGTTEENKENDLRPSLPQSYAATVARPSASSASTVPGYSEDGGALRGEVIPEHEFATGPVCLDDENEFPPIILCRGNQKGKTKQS
In words: co-IP.

No constants are given. Whether binding was seen depends on the method and setting. In cells and extracts the contact can be indirect. Tags and fused reporters may be left off the sequences shown.

Turning to “VPS26C (Retriever subunit) (from UniProt O14972 1-297)”, the binding entry is given as “no binding”.

The record behind these values is doi:10.1101/2025.10.08.681146.
